In PubChem BioAssay AID493014 (National Center for Advancing Translational Sciences (NCATS), 2011):
The list shows a part of the results. Further columns of the screen follow, without active or inactive calls. The list favours compounds with an active or inconclusive main result. The note in brackets gives the kind of curve behind each potency; many fits are weak.

Test: qHTS Assay to Find Inhibitors of Chronic Active B-Cell Receptor Signaling
Settings: ABC-DLBCL IkBa-CBG/CBR reporter, luminescence ratio (green luciferase fused to IkBa over red control in TMD8 lymphoma cells), 4 h
Outline: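 Compounds up to 46 uM were incubated four hours with TMD8 cells whose green CBG68 luciferase is fused to IkappaBalpha; red CBR luminescence normalised the signal, and concentration-effect curves were fitted to fusion, red and ratio data.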

[1] = measured here: CBR red luminescence, cell number
[2] = measured here: IkBa-CBG green luminescence

| SMILES | AC50 [1] | AC50 [2] |
| --- | --- | --- |
| O=C(NNc1ccccc1Br)C(=O)n1ccc2ccccc21 | 2.06 µM [falling, full curve] |  |
| Cc1cccc(C)c1NC(=O)CNC(=O)c1cn(-c2ccccc2)nc1-c1ccccc1 | 22.4 µM [rising, partial curve, poor fit] |  |
| O=C(CCCn1c(=S)[nH]c2ccccc2c1=O)N1CCCCC1 | 8.2 µM [falling, partial curve] |  |
| Cc1nnc(C)n1/N=C/c1cc2ccccc2nc1Cl |  | 35.5 µM [falling, partial curve, poor fit] |
| CC(C)c1ccc(/C=C/C(=O)NC(=S)Nc2ccc(CN3CCOCC3)cc2)cc1 | 29.1 µM [rising, single point] |  |
| COCC(=O)N/N=C\c1ccc(OC/C=C/c2ccccc2)c(OC)c1 | 17.8 µM [rising, single point] |  |
| O=C(NCC1CC1)C1CCCN(S(=O)(=O)c2ccc(-n3cnnn3)cc2)C1 (centres undefined) | 16.4 µM [falling, single point] |  |
| CCc1ccc(CCC(=O)Nc2sc(C)c(C)c2C(=O)OC)o1 | 1.3 µM [falling, partial curve, poor fit] |  |
| COC(=O)C1(Cc2cc(-c3ccccc3)no2)CCN(C(=O)OC(C)(C)C)CC1 | 3.98 µM [falling, partial curve] |  |
| COc1ccc(C2NC(=O)NC(C)=C2[N+](=O)[O-])cc1OC (centres undefined) | 35.5 µM [rising, single point] |  |
| CCOC(=O)C1(CC2CCCCO2)CCN(Cc2cc(F)ccc2-n2cccn2)CC1 (centres undefined) | 25.1 µM [falling, single point] |  |
| COc1cccc(CC(=O)Nc2ccc(-c3csc(C)n3)cc2)c1 | 22.4 µM [falling, single point] |  |
| COC(=O)CCCC1=CC2=C(c3ccccc3)C(=O)C(C)(OC(=O)C3CCCC3)C(=O)C2=CN1C1CCCCC1 (centres undefined) | 3.98 µM [rising, partial curve, poor fit] |  |
| CCCN1C(=O)c2ccccc2NC1c1ccc(Cl)c(Cl)c1 (centres undefined) | 35.5 µM [falling, single point] |  |
| CCCCc1c(O)nc2n(c1=O)CCS2 | 11.6 µM [falling, partial curve, poor fit] |  |
| CC1=[N+](C)N(c2ccccc2)C(=O)C1N=Cc1c(Cl)cccc1Cl (centres undefined) | 5.17 µM [rising, partial curve, poor fit] |  |
| O=C(C1=NN[C@@H]2C(=O)N(c3ccccc3C(F)(F)F)C(=O)[C@H]12)c1cnccn1 | 31.6 µM [rising, single point] |  |
| CC1(C)CC(=O)C2=C(C1)NC1=C(C(=O)c3ccccc31)C2c1ccc(Cl)cc1 (centres undefined) | 29.1 µM [falling, single point] |  |
| CN(CC(=O)Nc1cccc2ccccc12)C(=O)/C=C/c1cccs1 | 9.2 µM [falling, partial curve] |  |
| Cc1ccc(C(NC(=O)NC(C)c2ccccc2)C(Cl)(Cl)Cl)cc1F (centres undefined) | 20.6 µM [falling, partial curve, poor fit] |  |
| Cc1cc(C)cc(Oc2ccc(S(=O)(=O)N3CCN(C)CC3)cn2)c1 | 23.1 µM [falling, partial curve, poor fit] |  |

| SMILES | AC50 [1] | AC50 [2] |
| --- | --- | --- |
| COC(=O)CCN1CCN(S(=O)(=O)c2cccc(Br)c2)CC1 | 1.78 µM [rising, full curve, poor fit] |  |
| CN(C)S(=O)(=O)c1ccc2c(c1)/C(=C/c1cc3c([nH]1)CCCC3)C(=O)N2 | 1.84 µM [falling, full curve] |  |
| O=C(CCn1nc(-c2ccc(Cl)cc2)ccc1=O)NCCc1ccccc1 | 5.62 µM [rising, single point] |  |
| O=C(Nc1ccccc1F)C(=O)c1cn(CC(=O)N2CCCCC2)c2ccccc12 | 1.41 µM [falling, full curve] |  |
| CC1(C)CC(=O)C=C(NCC(O)c2ccccc2)C1 (centres undefined) | 25.1 µM [falling, partial curve, poor fit] |  |
| CSC1=NCCN1C(=O)COc1ccccc1 | 5.8 µM [rising, single point] |  |
| Cc1ccc(-c2noc(CCC(=O)NCCc3ccccc3Cl)n2)cc1 | 3.26 µM [rising, full curve] |  |
| CN(C)N1C(N)=C(C#N)C(c2ccc(Cl)cc2)C2=C1CCCC2=O (centres undefined) | 1.58 µM [falling, full curve] |  |
| O=C(Nc1nc2ccccc2s1)c1c(F)cccc1Cl | 7.94 µM [falling, partial curve] |  |
| O=C(NNC(=O)c1ccccc1Br)c1ccc(Cl)c(Cl)c1 | 2.51 µM [falling, full curve] |  |
| Cc1ccc(Cn2nnc3c(=O)[nH]c(C4CCN(S(=O)(=O)c5ccc(C)cc5)CC4)nc32)cc1 | 8.2 µM [falling, partial curve, poor fit] |  |
| COc1ccccc1N(CC(=O)NCCSc1ccccn1)S(=O)(=O)c1ccccc1 | 11.2 µM [falling, partial curve, poor fit] |  |
| CCCCCSc1nc2c(c(=O)[nH]c(=O)n2C)n1C(C)C | 0.651 µM [rising, full curve, poor fit] | 2.91 µM [falling, partial curve, poor fit] |
| COc1ccc(C(=O)CSc2nc(C(C)(C)C)nc3ccccc23)cc1 | 22.4 µM [rising, partial curve, poor fit] |  |
| CC(C)(C)NC(=O)C(c1ccc(O)cc1)N(C(=O)CCC(=O)Nc1nccs1)c1cccc(F)c1 (centres undefined) | 8.91 µM [falling, partial curve, poor fit] |  |
| COc1ccc(N2CCN(C(c3ccccc3F)c3sc4nc(-c5ccco5)nn4c3O)CC2)cc1 (centres undefined) | 25.1 µM [rising, partial curve, poor fit] |  |
| C[C@H](CO)N1C[C@H](C)[C@@H](CN(C)S(C)(=O)=O)Oc2c(NC(=O)Nc3ccc4c(c3)OCO4)cccc2C1=O | 16.4 µM [rising, partial curve, poor fit] |  |
| O=C(O)CC(CCc1ccccc1)OC1OC(CO)C(O)C(O)C1O (centres undefined) | 17.8 µM [rising, partial curve, poor fit] |  |
| COC(=O)c1cc(=O)nc2sc(-c3ccc(F)cc3)nn12 | 11.2 µM [rising, partial curve, poor fit] |  |
| COc1ccc2nc(-c3ccccc3)cc(C(=O)OCC(=O)N3CC(C)OC(C)C3)c2c1 (centres undefined) | 0.206 µM [rising, full curve, poor fit] |  |
| O=C(Cn1nc(-c2ccc(N3CCOCC3)c([N+](=O)[O-])c2)c2ccccc2c1=O)N1CCCCC1 | 25.9 µM [rising, single point] |  |

| SMILES | AC50 [1] | AC50 [2] |
| --- | --- | --- |
| Cc1cccc2cc(CN(CCCO)C(=O)Nc3cccc(Cl)c3)c(=O)[nH]c12 | 20 µM [falling, single point] |  |
| Cc1ccc(/C(N)=N/OC(=O)Cc2cccs2)cc1 | 0.891 µM [rising, full curve] |  |
| Cc1cc(OCCN2CCCCC2)nc2ccccc12 | 2.59 µM [falling, partial curve, poor fit] |  |
| CCC1(CC)Cc2ccccc2-c2nc(NN)[nH]c(=O)c21 | 28.2 µM [falling, single point] |  |
| Cc1cc(C)c(C2C3=C(Nc4c2c(C)nn4-c2ccccn2)c2ccccc2C3=O)c(C)c1 (centres undefined) | 2.91 µM [rising, partial curve, poor fit] |  |
| COc1ccc(/C=C/c2nc3ccccc3c(=O)o2)cc1 | 5.62 µM [falling, full curve, poor fit] |  |
| Brc1cccc(CN2CCN(c3ncccn3)CC2)c1 | 11.2 µM [rising, partial curve] |  |
| Cc1c(C)c2c(OCC(=O)NCCCO)cc3c(c2oc1=O)CCC(C)(C)O3 | 1.26 µM [rising, single point] |  |
| C=CCNC(=O)c1onc(CSc2ccccc2CC)c1C(=O)O | 5.62 µM [falling, partial curve] |  |
| Cn1c(SCc2nc(-c3ccc(Br)cc3)no2)nnc1-c1ccco1 | 14.6 µM [rising, single point] |  |
| O=C(NC1CCS(=O)(=O)C1)c1cn(-c2ccccc2)nc1-c1ccccc1 (centres undefined) | 8.91 µM [rising, partial curve, poor fit] |  |
| CC(C)NC(=O)c1ccc(Sc2ccccc2)c([N+](=O)[O-])c1 | 0.0103 µM [rising, full curve, poor fit] |  |
| CCCCCOc1ccc(CSC(=N)N)cc1[N+](=O)[O-] | 11.2 µM [falling, partial curve] |  |
| O=C1NC(=O)/C(=C\c2ccccc2OCc2ccc([N+](=O)[O-])cc2)N1 | 1.64 µM [rising, full curve, poor fit] |  |
| CCOC(=O)C1=C(C)NC(C)=C(C(=O)OCC)C1C(=O)OCC(=O)N(CC)C1CCS(=O)(=O)C1 (centres undefined) | 3.16 µM [rising, full curve, poor fit] |  |
| CC12CCC(C(=O)N3CCCCCC3)(OC1=O)C2(C)C (centres undefined) | 0.411 µM [rising, partial curve, poor fit] |  |
| O=C(NCc1cccs1)c1cccn2c(=O)c3sccc3nc12 | 3.55 µM [falling, partial curve, poor fit] |  |
| Cc1sc2nc(COC(=O)c3c(F)cccc3F)[nH]c(=O)c2c1C | 4.47 µM [rising, partial curve, poor fit] |  |
| C/C(=N\Nc1ccc([N+](=O)[O-])cc1)c1ccc(C#N)cc1 | 0.316 µM [rising, full curve, poor fit] |  |
| CC1=Nc2cc(C(=O)NCC3CCCO3)ccc2Sc2ccc(C)cc21 (centres undefined) | 3.16 µM [rising, full curve] | 3.98 µM [falling, full curve] |

Reformatted with tabs: 11 of the compounds above
SMILES	AC50 [1]	AC50 [2]
CC(C)c1ccc(/C=C/C(=O)NC(=S)Nc2ccc(CN3CCOCC3)cc2)cc1	29.1 µM [rising, single point]	
CC1(C)CC(=O)C2=C(C1)NC1=C(C(=O)c3ccccc31)C2c1ccc(Cl)cc1 (centres undefined)	29.1 µM [falling, single point]	
CN(C)S(=O)(=O)c1ccc2c(c1)/C(=C/c1cc3c([nH]1)CCCC3)C(=O)N2	1.84 µM [falling, full curve]	
O=C(CCn1nc(-c2ccc(Cl)cc2)ccc1=O)NCCc1ccccc1	5.62 µM [rising, single point]	
O=C(Nc1ccccc1F)C(=O)c1cn(CC(=O)N2CCCCC2)c2ccccc12	1.41 µM [falling, full curve]	
CSC1=NCCN1C(=O)COc1ccccc1	5.8 µM [rising, single point]	
Cc1ccc(-c2noc(CCC(=O)NCCc3ccccc3Cl)n2)cc1	3.26 µM [rising, full curve]	
Cc1ccc(Cn2nnc3c(=O)[nH]c(C4CCN(S(=O)(=O)c5ccc(C)cc5)CC4)nc32)cc1	8.2 µM [falling, partial curve, poor fit]	
O=C(O)CC(CCc1ccccc1)OC1OC(CO)C(O)C(O)C1O (centres undefined)	17.8 µM [rising, partial curve, poor fit]	
Cc1cc(OCCN2CCCCC2)nc2ccccc12	2.59 µM [falling, partial curve, poor fit]	
Cc1cc(C)c(C2C3=C(Nc4c2c(C)nn4-c2ccccn2)c2ccccc2C3=O)c(C)c1 (centres undefined)	2.91 µM [rising, partial curve, poor fit]	
